Experimental data taken from doi:10.1101/2020.04.22.053561.
Results are given in words; binding and its absence hold for the method and conditions named. Binding seen in cells or lysates may run through a third protein. Some results given as binding are weak or reduced against the parent protein; the word gives no strength. For some assays here: Tags and fused reporters may be left off the sequences shown.

Legend:
[1] = biological target: T1, BCL9 (full-length, control tumors) (mouse (endogenous in mouse tumors)) (UniProt Q9D219); assay: co-IP
T1 sequence: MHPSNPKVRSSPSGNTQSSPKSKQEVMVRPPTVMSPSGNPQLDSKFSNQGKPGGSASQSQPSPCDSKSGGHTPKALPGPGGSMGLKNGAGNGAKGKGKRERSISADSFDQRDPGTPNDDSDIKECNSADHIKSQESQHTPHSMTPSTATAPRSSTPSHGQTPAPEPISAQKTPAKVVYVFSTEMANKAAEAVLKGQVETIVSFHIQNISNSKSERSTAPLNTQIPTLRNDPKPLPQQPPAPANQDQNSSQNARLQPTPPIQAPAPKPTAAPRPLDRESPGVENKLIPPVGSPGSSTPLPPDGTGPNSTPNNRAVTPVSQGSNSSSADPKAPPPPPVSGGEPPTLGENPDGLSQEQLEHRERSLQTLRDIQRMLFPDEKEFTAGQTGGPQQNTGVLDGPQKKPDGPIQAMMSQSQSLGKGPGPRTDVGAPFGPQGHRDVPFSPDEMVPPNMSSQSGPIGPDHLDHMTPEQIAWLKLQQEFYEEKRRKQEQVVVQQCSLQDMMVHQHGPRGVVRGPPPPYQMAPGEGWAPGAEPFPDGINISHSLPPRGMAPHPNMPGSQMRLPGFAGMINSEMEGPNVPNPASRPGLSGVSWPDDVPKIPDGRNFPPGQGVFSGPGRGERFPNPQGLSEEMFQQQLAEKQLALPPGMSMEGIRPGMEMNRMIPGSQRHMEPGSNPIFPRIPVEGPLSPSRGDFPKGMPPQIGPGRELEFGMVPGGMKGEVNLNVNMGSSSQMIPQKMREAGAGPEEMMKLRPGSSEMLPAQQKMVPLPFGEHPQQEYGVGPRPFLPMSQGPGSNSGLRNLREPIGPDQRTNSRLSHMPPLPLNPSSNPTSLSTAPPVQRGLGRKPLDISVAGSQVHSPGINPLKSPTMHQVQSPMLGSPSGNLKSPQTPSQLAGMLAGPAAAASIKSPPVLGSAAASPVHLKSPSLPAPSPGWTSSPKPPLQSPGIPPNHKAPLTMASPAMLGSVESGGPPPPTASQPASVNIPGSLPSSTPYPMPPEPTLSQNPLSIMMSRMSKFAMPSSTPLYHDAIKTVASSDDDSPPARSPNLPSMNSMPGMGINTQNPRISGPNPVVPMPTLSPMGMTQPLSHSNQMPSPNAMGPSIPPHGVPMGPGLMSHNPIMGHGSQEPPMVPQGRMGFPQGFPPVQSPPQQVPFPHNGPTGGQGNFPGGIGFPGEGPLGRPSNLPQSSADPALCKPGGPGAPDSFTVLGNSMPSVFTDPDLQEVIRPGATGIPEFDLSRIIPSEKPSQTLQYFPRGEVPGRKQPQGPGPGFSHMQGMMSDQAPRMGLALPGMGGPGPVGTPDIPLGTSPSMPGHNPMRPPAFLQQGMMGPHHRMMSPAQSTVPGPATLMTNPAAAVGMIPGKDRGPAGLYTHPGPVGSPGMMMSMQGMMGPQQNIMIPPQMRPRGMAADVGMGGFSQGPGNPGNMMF

[2] = biological target: T2, BCL9-GFP (pCDNA3.1-BCL9-GFP) (UniProt O00512); assay: proximity ligation
T2 sequence: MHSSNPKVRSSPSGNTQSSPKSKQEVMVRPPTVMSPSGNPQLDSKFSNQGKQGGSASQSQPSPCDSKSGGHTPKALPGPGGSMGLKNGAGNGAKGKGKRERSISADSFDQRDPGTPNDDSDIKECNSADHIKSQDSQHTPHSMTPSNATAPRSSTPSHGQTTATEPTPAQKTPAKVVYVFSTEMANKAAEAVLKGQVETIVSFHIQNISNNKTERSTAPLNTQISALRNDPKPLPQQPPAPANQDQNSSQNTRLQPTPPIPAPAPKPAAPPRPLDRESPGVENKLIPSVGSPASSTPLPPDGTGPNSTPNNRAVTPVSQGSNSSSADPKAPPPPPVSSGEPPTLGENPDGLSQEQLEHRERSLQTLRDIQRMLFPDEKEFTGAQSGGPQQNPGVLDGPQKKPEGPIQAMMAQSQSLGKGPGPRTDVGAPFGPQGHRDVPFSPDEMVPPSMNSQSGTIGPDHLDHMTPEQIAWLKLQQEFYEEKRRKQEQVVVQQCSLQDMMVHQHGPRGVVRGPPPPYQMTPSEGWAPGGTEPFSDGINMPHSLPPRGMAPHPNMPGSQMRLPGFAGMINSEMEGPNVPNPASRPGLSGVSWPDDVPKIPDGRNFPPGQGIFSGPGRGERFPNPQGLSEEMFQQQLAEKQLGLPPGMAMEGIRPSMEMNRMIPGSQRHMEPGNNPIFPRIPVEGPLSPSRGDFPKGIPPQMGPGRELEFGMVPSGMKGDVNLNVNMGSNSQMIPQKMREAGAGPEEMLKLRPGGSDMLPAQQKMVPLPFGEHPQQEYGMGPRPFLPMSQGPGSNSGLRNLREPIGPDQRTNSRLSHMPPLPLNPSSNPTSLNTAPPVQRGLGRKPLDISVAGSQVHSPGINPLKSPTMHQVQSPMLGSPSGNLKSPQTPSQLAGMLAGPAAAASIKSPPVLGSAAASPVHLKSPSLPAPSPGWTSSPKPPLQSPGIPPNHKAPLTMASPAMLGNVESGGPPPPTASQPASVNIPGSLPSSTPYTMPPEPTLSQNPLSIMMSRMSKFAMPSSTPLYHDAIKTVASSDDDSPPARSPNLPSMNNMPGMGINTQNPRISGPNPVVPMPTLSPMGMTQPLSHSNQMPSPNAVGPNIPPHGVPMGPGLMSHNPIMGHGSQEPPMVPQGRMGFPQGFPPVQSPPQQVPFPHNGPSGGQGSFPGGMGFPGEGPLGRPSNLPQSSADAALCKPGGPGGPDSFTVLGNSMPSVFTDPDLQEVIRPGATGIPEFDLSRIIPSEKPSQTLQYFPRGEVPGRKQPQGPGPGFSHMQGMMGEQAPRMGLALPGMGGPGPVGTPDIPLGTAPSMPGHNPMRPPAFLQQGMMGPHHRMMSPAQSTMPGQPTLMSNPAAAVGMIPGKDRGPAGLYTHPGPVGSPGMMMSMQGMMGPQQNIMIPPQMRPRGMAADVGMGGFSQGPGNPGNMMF

B1: TBX3 (endogenous, mouse tumors) (protein, UniProt P70324 1-741)
chain: MSLSMRDPVIPGTSMAYHPFLPHRAPDFAMSAVLGHQPPFFPALTLPPNGAAALSLPGALAKPIMDQLVGAAETGIPFSSLGPQAHLRPLKTMEPEEDVEDDPKVHLEAKELWDQFHKRGTEMVITKSGRRMFPPFKVRCSGLDKKAKYILLMDIIAADDCRYKFHNSRWMVAGKADPEMPKRMYIHPDSPATGEQWMSKVVTFHKLKLTNNISDKHGFTLAFPSDHATWQGNYSFGTQTILNSMHKYQPRFHIVRANDILKLPYSTFRTYLFPETEFIAVTAYQNDKITQLKIDNNPFAKGFRDTGNGRREKRKQLTLQSMRVFEERHKKETSDESSSEQAAFNCFAQASSPAVSIVGTSNLKDLCPSEAESDAEAESKEEHGPEACDAAKISTTTAEEPGRDKGSPATRAQLFPAEPSRARDTARLDKASPDSRHSPATISSSTRVPGADERRSPGREGPVATKVDEARAIPAKDAFAPLSVQTDATAHLAQGPLPGLGFAPGLAGQQFFNGHPLFLHPGQFAMGGAFSSMAAGMGPLLATVSGASTGVSGLESTAMASAAAAQGLSGASAATLPFHLQQHVLASQGLAMSPFGSLFPYPYTYMAAAAAASTAAASSSVHRHPFLNLNSMRPRLRYSPYSIPVPVPDSSSLLATALPSMASAAGPLDGKAAALAASPASVAVDSGSELNSRSSTLSSGSVSLSPKLCSEKEAATSELQSIQRLVSGLEAKPDRSCSGSP
Q: How did the binding [1] turn out when B1 was run?
A: The binding was “binds”.

B2: TBX3-3xflag (protein, UniProt O15119 1-743)
chain: MSLSMRDPVIPGTSMAYHPFLPHRAPDFAMSAVLGHQPPFFPALTLPPNGAAALSLPGALAKPIMDQLVGAAETGIPFSSLGPQAHLRPLKTMEPEEEVEDDPKVHLEAKELWDQFHKRGTEMVITKSGRRMFPPFKVRCSGLDKKAKYILLMDIIAADDCRYKFHNSRWMVAGKADPEMPKRMYIHPDSPATGEQWMSKVVTFHKLKLTNNISDKHGFTLAFPSDHATWQGNYSFGTQTILNSMHKYQPRFHIVRANDILKLPYSTFRTYLFPETEFIAVTAYQNDKITQLKIDNNPFAKGFRDTGNGRREKRKQLTLQSMRVFDERHKKENGTSDESSSEQAAFNCFAQASSPAASTVGTSNLKDLCPSEGESDAEAESKEEHGPEACDAAKISTTTSEEPCRDKGSPAVKAHLFAAERPRDSGRLDKASPDSRHSPATISSSTRGLGAEERRSPVREGTAPAKVEEARALPGKEAFAPLTVQTDAAAAHLAQGPLPGLGFAPGLAGQQFFNGHPLFLHPSQFAMGGAFSSMAAAGMGPLLATVSGASTGVSGLDSTAMASAAAAQGLSGASAATLPFHLQQHVLASQGLAMSPFGSLFPYPYTYMAAAAAASSAAASSSVHRHPFLNLNTMRPRLRYSPYSIPVPVPDGSSLLTTALPSMAAAAGPLDGKVAALAASPASVAVDSGSELNSRSSTLSSSSMSLSPKLCAEKEAATSELQSIQRLVSGLEAKPDRSRSASP
Q: For B2, which binding [2] is on record?
A: Its binding is “binds”.
